Results on one molecule are retold here after patent US20160340415A1.

The experiment deals with T1, LukH_MSHR1132 (Staphylococcus aureus MSHR1132).
T1 sequence: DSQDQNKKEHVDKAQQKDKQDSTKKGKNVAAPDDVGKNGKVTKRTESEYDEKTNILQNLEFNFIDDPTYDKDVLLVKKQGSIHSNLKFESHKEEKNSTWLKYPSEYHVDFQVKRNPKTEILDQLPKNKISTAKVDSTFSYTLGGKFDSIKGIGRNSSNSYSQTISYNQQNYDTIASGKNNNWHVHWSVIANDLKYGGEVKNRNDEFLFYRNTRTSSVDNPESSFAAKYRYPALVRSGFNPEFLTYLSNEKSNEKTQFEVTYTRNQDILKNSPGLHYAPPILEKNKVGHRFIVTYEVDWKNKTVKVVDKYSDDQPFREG
Briefly: co-expression in E. coli; IMAC through NusA/His6 on LukG, with un-tagged LukH co-purified; the complex was kept through tag removal and cation exchange.

Results are given in words; binding and its absence hold for the method and conditions named. In cells and extracts the contact can be indirect. Some results given as binding are weak or reduced against the parent protein; the word gives no strength.

B1: LukG_MSHR1132 (protein)
chain: KIKSEITQVSEQNIDGNTKMFTRTATTSDSQKKISQSLQFNFLTEPNYDKETVFIKAKGTIGSGLKILDPNGYWNSTLRWPGSYSVSIQNVDNNTNTKVTDFAPKNQDETREVKYTYGYKTGGDFSISPGGITGNITKERNYSETISYQQPSYRTLIDQPATNKGVGWKVEAHLINNMGHDHTRQLTNDSDNRVGSEIFTLTRNGNLWAKDNFTPKNKMPVTVSEGFNPEFLAVMSHDKKDKGKSKFVVHYKRTMDDFKIDWMRHGFWGYWTGKNHVDQKEEKLSALYEVDWKTHDVKFIKALDDKEKK
B1: the binding result was “binds”.
